The list shows a part of the results. Most values lie at the level of the controls, where differences are scatter.
compound: Cc1nc(Nc2ncc(C(=O)Nc3c(C)cccc3Cl)s2)cc(N2CCN(CCO)CC2)n1 [dasatinib]; assay: log2 fold change of tryptic peptide abundance, ligand vs vehicle (limited proteolysis) (log2 ratio); higher = more trypsin-susceptible (destabilized); details: ligand concentration: 5 uM; sample: K562 cleared lysate

Protein sequences, listed by entry. Tags and fused reporters are not part of them. Lines headed by an entry give the natural chain unless they say otherwise; changes in a name come on top.
UniProt Q9C000: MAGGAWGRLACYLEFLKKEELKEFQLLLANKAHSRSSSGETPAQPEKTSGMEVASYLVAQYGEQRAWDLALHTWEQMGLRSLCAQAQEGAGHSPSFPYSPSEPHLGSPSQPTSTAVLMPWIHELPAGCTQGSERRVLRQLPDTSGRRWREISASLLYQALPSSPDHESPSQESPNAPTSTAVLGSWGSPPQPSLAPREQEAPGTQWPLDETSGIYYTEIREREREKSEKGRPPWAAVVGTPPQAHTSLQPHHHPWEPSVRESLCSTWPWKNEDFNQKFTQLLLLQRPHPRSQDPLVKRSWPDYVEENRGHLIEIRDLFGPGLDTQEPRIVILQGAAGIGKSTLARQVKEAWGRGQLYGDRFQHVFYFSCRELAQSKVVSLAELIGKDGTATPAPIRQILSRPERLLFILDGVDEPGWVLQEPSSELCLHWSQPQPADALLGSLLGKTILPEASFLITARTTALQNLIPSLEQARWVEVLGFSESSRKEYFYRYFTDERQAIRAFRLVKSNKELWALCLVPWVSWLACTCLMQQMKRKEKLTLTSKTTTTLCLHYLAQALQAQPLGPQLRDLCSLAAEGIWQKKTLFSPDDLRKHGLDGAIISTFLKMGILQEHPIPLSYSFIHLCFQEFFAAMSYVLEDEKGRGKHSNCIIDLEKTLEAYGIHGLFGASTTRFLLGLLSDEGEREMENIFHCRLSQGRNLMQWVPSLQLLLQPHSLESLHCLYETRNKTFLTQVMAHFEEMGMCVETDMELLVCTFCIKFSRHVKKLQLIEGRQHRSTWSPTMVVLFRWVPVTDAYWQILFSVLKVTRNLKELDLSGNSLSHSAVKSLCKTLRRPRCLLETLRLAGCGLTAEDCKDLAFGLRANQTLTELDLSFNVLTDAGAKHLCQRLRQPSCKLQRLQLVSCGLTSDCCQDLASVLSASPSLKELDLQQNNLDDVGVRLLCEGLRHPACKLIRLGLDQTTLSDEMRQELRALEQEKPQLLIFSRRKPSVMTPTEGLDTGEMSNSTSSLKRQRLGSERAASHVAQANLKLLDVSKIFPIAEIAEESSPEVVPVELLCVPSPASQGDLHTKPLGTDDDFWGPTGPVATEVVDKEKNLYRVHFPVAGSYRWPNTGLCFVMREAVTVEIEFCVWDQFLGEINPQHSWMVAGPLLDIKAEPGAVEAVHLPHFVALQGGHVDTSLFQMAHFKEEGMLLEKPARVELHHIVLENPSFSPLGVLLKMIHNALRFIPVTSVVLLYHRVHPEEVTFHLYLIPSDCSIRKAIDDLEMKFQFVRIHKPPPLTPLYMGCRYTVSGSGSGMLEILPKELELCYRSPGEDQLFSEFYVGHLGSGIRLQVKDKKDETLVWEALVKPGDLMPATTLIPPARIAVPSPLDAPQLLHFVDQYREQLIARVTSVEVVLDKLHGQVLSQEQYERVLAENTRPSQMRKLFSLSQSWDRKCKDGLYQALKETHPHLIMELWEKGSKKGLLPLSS
UniProt Q9H0W9: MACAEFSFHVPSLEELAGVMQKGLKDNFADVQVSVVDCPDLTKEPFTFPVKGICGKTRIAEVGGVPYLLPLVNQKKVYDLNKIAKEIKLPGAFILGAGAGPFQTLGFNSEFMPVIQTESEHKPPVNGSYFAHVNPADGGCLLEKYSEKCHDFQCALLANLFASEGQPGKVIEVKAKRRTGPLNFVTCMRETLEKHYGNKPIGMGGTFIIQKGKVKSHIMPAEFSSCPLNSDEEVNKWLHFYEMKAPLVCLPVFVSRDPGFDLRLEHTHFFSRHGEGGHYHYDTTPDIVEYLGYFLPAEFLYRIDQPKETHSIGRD
UniProt Q9H079: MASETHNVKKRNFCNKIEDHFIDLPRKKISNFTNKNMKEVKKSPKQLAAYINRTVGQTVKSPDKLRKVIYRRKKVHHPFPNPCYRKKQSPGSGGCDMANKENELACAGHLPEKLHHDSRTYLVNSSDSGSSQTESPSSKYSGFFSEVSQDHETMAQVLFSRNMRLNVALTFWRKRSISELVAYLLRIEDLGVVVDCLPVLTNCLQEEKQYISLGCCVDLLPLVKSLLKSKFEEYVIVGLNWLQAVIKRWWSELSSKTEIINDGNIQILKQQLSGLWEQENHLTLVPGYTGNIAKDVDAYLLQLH
UniProt Q9BZI7: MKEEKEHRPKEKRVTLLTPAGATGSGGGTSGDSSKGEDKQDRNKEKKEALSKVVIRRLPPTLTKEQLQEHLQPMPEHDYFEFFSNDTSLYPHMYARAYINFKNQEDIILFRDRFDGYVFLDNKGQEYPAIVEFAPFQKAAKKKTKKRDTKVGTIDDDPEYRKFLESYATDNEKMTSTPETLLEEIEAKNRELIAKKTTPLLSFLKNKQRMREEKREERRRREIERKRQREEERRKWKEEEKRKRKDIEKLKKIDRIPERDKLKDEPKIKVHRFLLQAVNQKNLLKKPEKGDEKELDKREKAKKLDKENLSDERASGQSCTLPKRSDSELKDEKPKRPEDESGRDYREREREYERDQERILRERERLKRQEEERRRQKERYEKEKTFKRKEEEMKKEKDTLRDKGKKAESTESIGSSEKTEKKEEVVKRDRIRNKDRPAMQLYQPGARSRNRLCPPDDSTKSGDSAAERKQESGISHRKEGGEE
UniProt Q9H0H5: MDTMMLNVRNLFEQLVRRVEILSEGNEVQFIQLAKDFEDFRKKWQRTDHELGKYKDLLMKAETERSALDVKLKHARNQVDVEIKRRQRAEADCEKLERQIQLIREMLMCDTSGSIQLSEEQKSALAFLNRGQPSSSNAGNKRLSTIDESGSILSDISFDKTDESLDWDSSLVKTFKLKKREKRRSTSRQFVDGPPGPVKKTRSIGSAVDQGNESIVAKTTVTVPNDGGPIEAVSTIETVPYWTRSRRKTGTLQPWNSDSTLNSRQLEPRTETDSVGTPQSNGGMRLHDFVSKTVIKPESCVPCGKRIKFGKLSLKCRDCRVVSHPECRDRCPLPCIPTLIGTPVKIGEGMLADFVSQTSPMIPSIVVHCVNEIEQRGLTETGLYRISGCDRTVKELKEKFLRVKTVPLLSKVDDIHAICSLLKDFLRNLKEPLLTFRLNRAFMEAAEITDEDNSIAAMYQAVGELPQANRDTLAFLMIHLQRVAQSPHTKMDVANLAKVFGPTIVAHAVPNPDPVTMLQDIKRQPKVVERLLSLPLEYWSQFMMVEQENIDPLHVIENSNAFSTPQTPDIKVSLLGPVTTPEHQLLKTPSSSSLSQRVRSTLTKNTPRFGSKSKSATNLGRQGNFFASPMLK
UniProt Q9BX68: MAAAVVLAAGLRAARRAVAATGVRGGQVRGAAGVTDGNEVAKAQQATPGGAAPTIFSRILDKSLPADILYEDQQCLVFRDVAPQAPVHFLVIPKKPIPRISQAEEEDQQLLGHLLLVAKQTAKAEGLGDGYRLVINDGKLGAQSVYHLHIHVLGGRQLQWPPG
UniProt Q9C010: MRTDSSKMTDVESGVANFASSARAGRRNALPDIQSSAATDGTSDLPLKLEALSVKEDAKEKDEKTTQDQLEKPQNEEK
UniProt Q9BXL5: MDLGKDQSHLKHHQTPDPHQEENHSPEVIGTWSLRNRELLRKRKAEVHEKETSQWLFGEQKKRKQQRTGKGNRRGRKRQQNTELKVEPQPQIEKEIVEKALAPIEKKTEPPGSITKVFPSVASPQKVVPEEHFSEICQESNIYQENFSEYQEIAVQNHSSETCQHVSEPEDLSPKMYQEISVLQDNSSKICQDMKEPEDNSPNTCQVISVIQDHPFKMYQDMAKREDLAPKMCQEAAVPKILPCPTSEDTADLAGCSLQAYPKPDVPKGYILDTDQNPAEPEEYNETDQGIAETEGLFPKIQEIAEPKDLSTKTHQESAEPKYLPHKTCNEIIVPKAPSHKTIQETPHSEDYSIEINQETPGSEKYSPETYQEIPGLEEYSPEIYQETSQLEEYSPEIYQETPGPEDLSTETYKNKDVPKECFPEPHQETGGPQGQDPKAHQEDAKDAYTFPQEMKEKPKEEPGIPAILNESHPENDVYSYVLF

Target | log2 fold change
NLRP1 (peptide sequence: AASHVAQANLK, peptide start residue: 1020) (UniProt Q9C000) | 0.0958
C11orf54 (peptide sequence: ETHSIGRD, peptide start residue: 308) (UniProt Q9H0W9) | 0.0311
KATNBL1 (peptide sequence: DVDAYLLQLH, peptide start residue: 295) (UniProt Q9H079) | 0.349
UPF3B (peptide sequence: NQEDIILFR, peptide start residue: 103) (UniProt Q9BZI7) | -0.657
RACGAP1 (peptide sequence: NLFEQLVR, peptide start residue: 10) (UniProt Q9H0H5) | -0.146
HINT2 (peptide sequence: AEGLGDGYR, peptide start residue: 124) (UniProt Q9BX68) | 0.193
PKIB (peptide sequence: TTQDQLEKPQNEEK, peptide start residue: 65) (UniProt Q9C010) | -0.0107
HEMGN (peptide sequence: MYQDMAKR, peptide start residue: 218) (UniProt Q9BXL5) | -0.13

From the supplement of paper PMC12819154, “High-throughput peptide-centric local stability assay extends protein–ligand identification to membrane proteins, tissues and bacteria” (Nature Structural & Molecular Biology, 2025)
